Values from PubChem BioAssay AID1053208 (Peter MacCallum Cancer Centre, 2014)
The whole screen tested about 17,000 reagents; below is a part drawn at random. 788 of them (4.7%) were called active. 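Calls rest on z-score classes alone; an extra cut-off of viability at most 70% of control was not applied to them.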 A number with no mark means an inactive call.

Aim: 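Synthetic lethal interactions between gene loss and doxorubicin in osteosarcoma cells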 (primary screen)
System: mouse osteosarcoma cells, early-passage culture from an engineered mouse model of fibroblastic bone tumour
Reagent: siRNA pool against mouse genes, 40 nM
Timing: about 120 h (48 h before drug, then 72 h with drug)
Challenge: doxorubicin 100 nM for 72 h, roughly 30-40% inhibitory dose
Detection: 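Viability read as ATP luminescence after 72 h of 100 nM doxorubicin or none, duplicate wells averaged, scaled to non-targeting siRNA, then expressed as robust z-scores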
Scale: viability z-score with doxorubicin and doxorubicin viability vs non-targeting: higher = more viable cells under doxorubicin; viability z-score without drug: higher = more viable cells with knock-down alone; z-score of drug to no-drug ratio: higher = less drug sensitisation by knock-down
Call rule: 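a pool counts as active when its viability z-score with doxorubicin is -2 or below and its z-score without drug lies between -2 and 2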

no.	gene	combined z-score class	viability z-score with doxorubicin	viability z-score without drug	z-score of drug to no-drug ratio	doxorubicin viability vs non-targeting
1	Ascc2	no change with or without drug	-0.11	0.17	-0.11	0.93
2	E130308A19Rik	low cell count with doxorubicin only (active)	-2.14	-1.01	-1.57	0.75
3	Zpld1	low cell count with doxorubicin only (active)	-2.02	-0.67	-1.57	0.76
4	Wtip	no change with or without drug	0.34	1.18	-0.34	0.97
5	Gli1	no change with or without drug	-1.46	-1.52	-0.45	0.81
6	Bsn	no change with or without drug	-0.45	-0.34	-0.11	0.9
7	Cyp19a1	high cell count with doxorubicin only	2.59	0.84	2.14	1.17
8	Wdr3	no change with or without drug	-1.12	-1.52	0	0.84
9	Fbxl5	no change with or without drug	-0.9	-0.34	-0.67	0.86
10	Taar8a	no change with or without drug	-0.56	1.18	-1.24	0.89
11	Grm7	no change with or without drug	1.57	-0.17	1.91	1.08
12	Slain2	no change with or without drug	-1.35	-0.51	-1.01	0.82
13	Stx8	no change with or without drug	1.01	-0.17	1.35	1.03
14	Macroh2a3	no change with or without drug	1.57	0.17	1.69	1.08
15	Auts2	no change with or without drug	-0.45	0.34	-0.56	0.9
16	Ints12	no change with or without drug	1.24	-0.17	1.57	1.05
17	Helz2	high cell count with doxorubicin only	2.59	1.52	1.57	1.17
18	Alpk2	no change with or without drug	1.8	1.18	1.12	1.1
19	Fbxo38	no change with or without drug	0.11	-0.84	0.9	0.95
20	Hrob	no change with or without drug	0.45	0.17	0.45	0.98
21	Xbp1	no change with or without drug	-0.67	0.34	-0.79	0.88
22	Gpr141	no change with or without drug	0.45	0.17	0.45	0.98
23	Vmn1r185	no change with or without drug	0	0.17	0	0.94
24	Dync2i1	no change with or without drug	0.79	0.84	0.34	1.01
25	Foxp1	no change with or without drug	-0.22	0.51	-0.45	0.92
26	Pik3r1	no change with or without drug	-0.34	0.84	-0.79	0.91
27	Ina	no change with or without drug	0.67	-0.17	0.9	1
28	Gal	no change with or without drug	1.12	1.18	0.45	1.04
29	Cacna1c	no change with or without drug	0.9	0.17	0.9	1.02
30	Tle1	low cell count with doxorubicin only (active)	-2.81	-1.18	-2.25	0.69
31	Cdpf1	high cell count without drug only	-1.91	2.19	-3.04	0.77
32	Zfp41	no change with or without drug	1.69	1.35	0.9	1.09
33	Ric1	no change with or without drug	-0.67	-0.67	-0.11	0.88
34	Larp1b	no change with or without drug	-0.45	-0.34	-0.11	0.9
35	Ucn	no change with or without drug	1.35	1.85	0.22	1.06
36	Mapk8ip3	high cell count without drug only	1.12	3.2	-0.79	1.04
37	Pggt1b	no change with or without drug	0.22	-0.51	0.67	0.96
38	Asic1	no change with or without drug	-0.22	-0.51	0.22	0.92
39	Lrrc14	no change with or without drug	0.45	-0.17	0.67	0.98
40	Fibin	no change with or without drug	-0.67	-0.51	-0.22	0.88
41	Oat	no change with or without drug	-0.22	1.18	-0.9	0.92
42	Ubqlnl	no change with or without drug	-0.79	-0.34	-0.45	0.87
43	Kdm4a	low cell count with doxorubicin only (active)	-2.36	-0.17	-2.25	0.73
44	Or8k16	low cell count with and without drug	-2.14	-2.87	-0.22	0.75
45	Podxl	no change with or without drug	0.34	-0.84	1.12	0.97
46	Or51v14	no change with or without drug	-0.45	-0.84	0.22	0.9
47	Mccc2	no change with or without drug	-0.34	-0.51	0.11	0.91
48	Srcin1	low cell count with doxorubicin only (active)	-2.14	-0.51	-1.8	0.75
49	Parp4	no change with or without drug	1.12	1.18	0.45	1.04
50	Ins1	no change with or without drug	0	-0.17	0.22	0.94
51	Ralgapa1	no change with or without drug	-1.35	-0.67	-0.9	0.82
52	Ogfod2	no change with or without drug	-1.12	0.67	-1.46	0.84
53	Bpi	no change with or without drug	0.22	0.51	0	0.96
54	Ppia	no change with or without drug	0	1.69	-0.9	0.94
55	P2ry12	no change with or without drug	-0.45	1.01	-1.01	0.9
56	Pomt1	no change with or without drug	0.9	1.35	0.11	1.02
57	Il36a	no change with or without drug	0.9	1.52	0	1.02
58	Hey1	no change with or without drug	0.34	0.67	0	0.97
59	Fndc9	no change with or without drug	1.35	-1.18	2.47	1.06
60	Aqp7	no change with or without drug	-1.12	-1.52	0	0.84
61	Itfg1	no change with or without drug	-0.67	0.67	-1.01	0.88
62	Myo18a	no change with or without drug	1.12	-0.17	1.46	1.04
63	Srf	no change with or without drug	0.67	-1.18	1.8	1

Copied from above, 4 entries:
no.	gene	combined z-score class	viability z-score with doxorubicin	viability z-score without drug	z-score of drug to no-drug ratio	doxorubicin viability vs non-targeting
60	Aqp7	no change with or without drug	-1.12	-1.52	0	0.84
61	Itfg1	no change with or without drug	-0.67	0.67	-1.01	0.88
62	Myo18a	no change with or without drug	1.12	-0.17	1.46	1.04
63	Srf	no change with or without drug	0.67	-1.18	1.8	1
